Some of the results follow. Shown are side measurements of this screen, not its main read-out; they come without a call. The list favours compounds with an active or inconclusive main result. The note in brackets gives the kind of curve behind each potency; many fits are weak.
Assay: qHTS Assay to Find Inhibitors of Chronic Active B-Cell Receptor Signaling
Conditions: ABC-DLBCL IkBa-CBG/CBR reporter, luminescence ratio (green luciferase fused to IkBa over red control in TMD8 lymphoma cells), 4 h
Procedure, shortened: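 Compounds up to 46 uM were incubated four hours with TMD8 cells whose green CBG68 luciferase is fused to IkappaBalpha; red CBR luminescence normalised the signal, and concentration-effect curves were fitted to fusion, red and ratio data.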

[1] = measured here: CBR red luminescence, cell number
[2] = measured here: IkBa-CBG green luminescence

Row | Structure (SMILES) | AC50 [1] | AC50 [2]
1 | CCOC(=O)C1CCN(c2ccc(Cl)nn2)CC1 | 6.31 µM [rising, single point] | 
2 | CC(=O)c1ccc(NC(=O)c2ccc3nc(-c4ccco4)c(-c4ccco4)nc3c2)cc1 | 20.6 µM [falling, partial curve, poor fit] | 
3 | O=C(CCc1ccccc1)NNC(=O)Nc1ccc(Br)cc1 | 0.282 µM [rising, full curve, poor fit] | 
4 | O=C(CSc1ncccc1-c1nc2ccccc2[nH]1)Nc1ccc2c(c1)OCCO2 | 13 µM [falling, partial curve, poor fit] | 
5 | COC(=O)c1cc2ccsc2n1Cc1ccccc1F | 18.4 µM [rising, partial curve] | 
6 | CCn1c(CCNC(=O)c2ccc(OC)c(OC)c2)nc2ccccc21 | 1.64 µM [falling, full curve, poor fit] | 18.4 µM [rising, partial curve, poor fit]
7 | Cc1cc(OCC(=O)Nc2ccccc2N2CCOCC2)c(C(C)C)cc1Cl | 9.2 µM [falling, partial curve] | 
8 | COc1ccc(NC(=O)NCCc2ccc(Cl)cc2)cc1OC | 35.5 µM [rising, single point] | 
9 | N/C(=N\OC(=O)CCC1CCCC1)c1ccncc1 | 12.6 µM [rising, partial curve, poor fit] | 
10 | Cc1cccc(C(=O)N[C@H](C(=O)Nc2ncc(C)s2)C(C)C)c1 | 6.31 µM [rising, single point] | 
11 | COc1ccc(-c2csc(Nc3ccc(S(N)(=O)=O)cc3)n2)cc1OC | 10 µM [falling, partial curve, poor fit] | 
12 | O=C(c1ccc(-c2ccccc2)cc1)C1CCCN(Cc2ccncc2)C1 (stereo unspecified) | 4.47 µM [falling, partial curve] | 0.631 µM [rising, full curve, poor fit]
13 | O=c1[nH]nc(Cc2ccc3ccccc3n2)c2ccccc12 | 7.94 µM [rising, partial curve] | 
14 | CCOC(=O)C1CCN(C(=O)CCc2c(C)nc3cc(-c4ccc(OC)cc4OC)nn3c2C)CC1 | 8.91 µM [falling, partial curve] | 
15 | COc1ccccc1N1CCN(C(=O)c2ccc3c(Cl)c4c(nc3c2)CCCC4)CC1 | 20.6 µM [falling, partial curve] | 
16 | N#Cc1c(NC(=O)COC(=O)C2CC3C=CC2C3)oc(-c2ccccc2)c1-c1ccccc1 (stereo unspecified) | 9.2 µM [falling, partial curve] | 
17 | CCn1c(SCC(=O)Nc2sc(C)c(C)c2C#N)nnc1C1CC1 | 35.5 µM [falling, single point] | 
18 | C[C@H](NC(=O)C(c1ccccc1)c1ccccc1)c1ccccc1 | 20 µM [falling, single point] | 
19 | COc1ccc(CNC(=O)CCc2c(C)nc3cc(-c4ccccc4OC)nn3c2C)cc1 | 7.94 µM [falling, partial curve, poor fit] | 
20 | Cc1cccc(-c2noc(CN(C(=O)c3ccc4c(c3)OCO4)C(C)C)n2)c1 | 0.103 µM [rising, full curve, poor fit] | 
21 | CCOC(=O)CNC(=O)c1cn(C)c(=O)c2cc(OC)c(OC)cc12 | 35.5 µM [falling, single point] | 

Ordered by molar mass (high to low): some entries from above.
Row | Structure (SMILES) | AC50 [1] | AC50 [2]
2 | CC(=O)c1ccc(NC(=O)c2ccc3nc(-c4ccco4)c(-c4ccco4)nc3c2)cc1 | 20.6 µM [falling, partial curve, poor fit] | 
21 | CCOC(=O)CNC(=O)c1cn(C)c(=O)c2cc(OC)c(OC)cc12 | 35.5 µM [falling, single point] | 
18 | C[C@H](NC(=O)C(c1ccccc1)c1ccccc1)c1ccccc1 | 20 µM [falling, single point] | 

(listing goes on)

Row | Structure (SMILES) | AC50 [1] | AC50 [2]
22 | COc1ccc(-c2ccc(=O)n(CC(=O)Nc3ccc(C)cc3C)n2)cc1 | 35.5 µM [rising, single point] | 
23 | Cn1c(C2=C(O)CN(Cc3ccccc3)C2=N)nc2ccccc21 | 6.31 µM [rising, single point] | 11.2 µM [falling, partial curve, poor fit]
24 | Cc1ccc(-c2ccc(CCC(=O)O)n2-c2cccc(O)c2)cc1 | 11.6 µM [rising, partial curve] | 
25 | COC(=O)COc1cccc2c(=O)n(CC(=O)NCc3ccccc3)ccc12 | 12.6 µM [rising, partial curve] | 10 µM [falling, partial curve]
26 | CN1CCN(CCCNC(=O)c2ccc(/C=C3\Oc4ccccc4N(Cc4ccccc4F)C3=O)cc2)CC1 | 5.62 µM [rising, single point] | 
27 | O=C(CNC(=O)c1cn2ccccc2n1)Nc1ccc(F)c(F)c1 | 18.4 µM [falling, single point] | 
28 | O=C(O)C1CCN(C(=O)c2ccc(Cl)cc2)CC1 | 0.58 µM [falling, partial curve, poor fit] | 
29 | COc1cc(/C=N/n2nnnc2N)ccc1OC(C)C | 12.6 µM [rising, partial curve] | 
30 | S=C1Cc2ccccc2C(c2ccc(Cl)cc2)N1 (stereo unspecified) | 6.31 µM [rising, full curve, poor fit] | 
31 | O=C(NNC(=O)c1cccs1)c1ccc([N+](=O)[O-])cc1 | 0.562 µM [falling, full curve] | 
32 | CCOc1ccc(N/C=C/C(=O)c2cc(OC)c(OC)c(OC)c2)cc1 | 14.1 µM [rising, partial curve, poor fit] | 
33 | Cn1c(=O)[nH]c(=O)c2c1nc(N/N=C/c1cccnc1)n2Cc1ccc(Cl)cc1 | 11.2 µM [rising, partial curve, poor fit] | 
34 | COc1ccc(CC(=O)OCC(=O)NCc2ccc(Cl)cc2)cc1 | 0.447 µM [rising, full curve, poor fit] | 
35 | S=c1cnc2ccccc2[nH]1 | 12.6 µM [rising, partial curve, poor fit] | 
36 | CCc1ccc(/C=C2\SC(=S)N(CCCC(=O)Nc3nccs3)C2=O)cc1 | 11.6 µM [falling, partial curve, poor fit] | 
37 | CCC(C)c1ccc(-c2cc(C(=O)OCC(=O)Nc3cc(C)on3)c3ccccc3n2)cc1 (stereo unspecified) | 2.91 µM [rising, partial curve] | 
38 | O=C(O)c1ccccc1-c1ccccc1C(=O)NNc1ccccc1 | 32.6 µM [rising, single point] | 
39 | CN1C(=O)c2oc3ccccc3c(=O)c2C1c1ccncc1 (stereo unspecified) | 11.2 µM [falling, single point] | 
40 | Cc1cccc(Sc2c([N+](=O)[O-])ncn2C)c1 | 14.1 µM [falling, single point] | 
41 | Cc1nc(N2CCOCC2)sc1C(=O)NN | 7.08 µM [falling, partial curve] | 
42 | O=C(C1CCCN(Cc2ccncc2)C1)N1CCc2ccccc2C1 (stereo unspecified) | 3.55 µM [rising, partial curve] | 

Row | Structure (SMILES) | AC50 [1] | AC50 [2]
43 | Cc1cccc(N2C(=O)C3C(c4ccccc4)OC4(C(=O)c5ccccc5C4=O)C3C2=O)c1 (stereo unspecified) | 35.5 µM [falling, partial curve, poor fit] | 
44 | COc1ccc(CNC(=O)C2CCCN(c3nccc(C)n3)C2)cc1 (stereo unspecified) | 23.1 µM [rising, single point] | 
45 | O=C(CNC(=O)c1ccccc1)OC(C(=O)Nc1cc(C(F)(F)F)ccc1Cl)c1ccccc1 (stereo unspecified) | 9.2 µM [rising, partial curve, poor fit] | 
46 | CCCCNc1c(-c2cccc(-c3cc(C(C)=O)cs3)c2)nc2ccc(C)cn12 | 11.6 µM [falling, partial curve, poor fit] | 
47 | COc1ccc2cc(C(=O)NCc3ccco3)c(=O)oc2c1 | 7.31 µM [falling, partial curve] | 
48 | COc1ccc(-c2nc3ccccc3nc2-c2ccc(OC)cc2)cc1 | 11.2 µM [rising, partial curve, poor fit] | 
49 | Cn1c(=O)c2c(nc(SCC(=O)NCC3CCCO3)n2Cc2ccc(F)cc2)n(C)c1=O (stereo unspecified) | 31.6 µM [rising, single point] | 
50 | CCOC(=O)c1sc(NC(=O)c2cccc(S(=O)(=O)N(CC)CC)c2)cc1C | 0.116 µM [falling, full curve, poor fit] | 
51 | O=C(O)c1ccc(-n2c(-c3ccc(Br)cc3)n[nH]c2=S)cc1 | 9.2 µM [falling, partial curve, poor fit] | 
52 | CCc1nnc(NC(=O)CSc2nnc3c(n2)[nH]c2ccccc23)s1 | 1.58 µM [rising, full curve, poor fit] | 
53 | Cc1ccc2nc(-c3ccc(NC(=O)CSc4nc(N)cc(=O)[nH]4)cc3)sc2c1 | 8.91 µM [rising, partial curve, poor fit] | 
54 | O=C(c1ccc(-c2cccc(C(F)(F)F)c2)o1)N1CCCC(C(F)(F)F)C1 (stereo unspecified) | 2.31 µM [rising, partial curve, poor fit] | 
55 | COc1cc(OC)cc(C(=O)Nc2nc3ccccc3[nH]2)c1 | 16.4 µM [falling, partial curve, poor fit] | 
56 | COc1ccc(NC(=O)c2ccc(NS(=O)(=O)c3cccc4cccnc34)cc2)cc1 | 35.5 µM [falling, single point] | 
57 | COc1cc(NC(=O)COC(=O)[C@@H]2CCCN2S(=O)(=O)c2ccc(Cl)cc2)cc(OC)c1OC | 0.355 µM [rising, full curve, poor fit] | 
58 | C=CCNC(=O)/C(C#N)=C/c1c(N2CC(C)OC(C)C2)nc2ccccn2c1=O (stereo unspecified) | 0.82 µM [rising, full curve, poor fit] | 
59 | COc1cccc(OCc2cc(C(=O)N3CCC(C(O)C(C)C)CC3)no2)c1 (stereo unspecified) | 17.8 µM [falling, partial curve, poor fit] | 
60 | COc1ccc(/C=C/C(=O)c2cc(F)ccc2OC(=O)c2ccccc2OC)cc1OC | 11.2 µM [rising, partial curve] | 2.82 µM [falling, full curve]
61 | Cc1ccc2c(CN(C)Cc3cccc(F)c3)cc(=O)oc2c1 | 6.31 µM [rising, partial curve, poor fit] | 

As entered above:
CCc1nnc(NC(=O)CSc2nnc3c(n2)[nH]c2ccccc23)s1 | AC50 [1]: 1.58 µM [rising, full curve, poor fit]
COc1cc(OC)cc(C(=O)Nc2nc3ccccc3[nH]2)c1 | AC50 [1]: 16.4 µM [falling, partial curve, poor fit]

Reference: PubChem BioAssay AID493014 (National Center for Advancing Translational Sciences (NCATS), 2011)
